Assay results reported in PubChem BioAssay AID2685 (National Center for Advancing Translational Sciences (NCATS), 2010).
The other results are listed elsewhere or left out. Shown are side measurements of this screen, not its main read-out; they come without a call. Compounds called inactive in the main read-out are mostly missing here. The note in brackets gives the kind of curve behind each potency; many fits are weak.

Assay: qHTS Assay for Lipid Storage Modulators in Drosophila S3 Cells;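 as to cell number change: cells counted by Cell Tracker Red CMTPX staining in the red channel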
Conditions: BODIPY lipid droplet fluorescence, 18-24 h; for cell number change: measured here: cell count max response, cells fed with added oleic acid
Summary of the method: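 Drosophila S3 cells loaded with oleic acid (400 uM, as added) and compounds at several concentrations; lipid droplets imaged by 488-nm laser-scanning cytometry, 500–530 nm intensity and object ratio to cell channel. Percent activity normalized to 20 uM Triacsin C.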

[1] = measured here: cell number channel AC50, cells fed with added oleic acid
[2] = measured here: lipid fluorescence (Fed channel) AC50, cells fed with added oleic acid

SMILES | cell number change | AC50 [1] | AC50 [2]
CCCCNC(C(=O)Nc1cccc(S(=O)(=O)N2CCOCC2)c1)c1ccccc1 (centres undefined) | 56.4% | – | –
COCc1[nH]nc2c1C(c1cccc(OC)c1)C(C#N)=C(N)O2 (centres undefined) | -22.4% | 0.517 µM [falling, full curve] | –
CCc1cc([N+](=O)[O-])cc(CC)c1N | 131% | 8.2 µM [rising, partial curve] | 14.6 µM [rising, partial curve]
COc1ccc(NC(=O)CCC(=O)c2cccs2)cc1Cl | 18% | – | –
Cc1cc(S(=O)(=O)N2CCOCC2)ccc1OCC(=O)NCCCn1ccnc1 | 17.8% | – | –
CCCCOc1ccc(C(=O)N2CCC(C)CC2)cc1 | -24.8% | – | 4.11 µM [rising, partial curve, poor fit]
CCCOc1ccc(C(=O)N/N=C/c2ccc(-c3ccc(S(=O)(=O)Nc4ncccn4)cc3)o2)cc1 | -34.7% | 20.6 µM [falling, single point] | –
Cc1ccc(NC(=O)CCC(=O)N/N=C/c2cccs2)cc1C | 4.75% | – | 6.51 µM [rising, single point]
COc1ccc(-c2cc(C(=O)N(C)CCc3ccc(OC)c(OC)c3)c3ccccc3n2)cc1 | 15.1% | – | –
Cc1ccc(S(=O)(=O)N2CCN(C(=O)c3sccc3-c3ccccc3)CC2)cc1 | -5.18% | – | 23.1 µM [falling, single point]
O=c1[nH]cnc2c1c(-c1ccccc1)cn2-c1ccc(F)cc1 | 18.7% | – | 6.51 µM [rising, single point]
CCOc1ccc(N(CC(=O)NCc2ccc(F)cc2)C(=O)c2ccco2)cc1 | -9.4% | – | 7.31 µM [falling, partial curve, poor fit]
O=C(O)CNC(=O)c1cccc(C(F)(F)F)c1 | -9.78% | – | 0.103 µM [falling, full curve, poor fit]
CC(C)(C)C(=O)N1CCN(CCN2C(=O)c3cccc4cccc(c34)C2=O)CC1 | -11.3% | – | –
O=C(OCc1c(Cl)cccc1Cl)c1cnccn1 | 8.75% | – | 32.6 µM [falling, single point]
Cc1cc(NC(=O)c2cccs2)n(-c2ccccc2)n1 | 11% | – | 16.4 µM [falling, partial curve]
N#CC(C#N)=C1NC2(CCCC2)Cc2ccccc21 | 23.2% | – | 0.731 µM [rising, full curve, poor fit]
COc1ccc(NC(=O)Cc2coc3ccc4ccccc4c23)cc1S(=O)(=O)N1CCOCC1 | 17.5% | – | 2.31 µM [rising, single point]
CC1CCN(C(=O)c2ccc(NC3=C(Cl)C(=O)N(Cc4ccccc4)C3=O)cc2)CC1 | -46.3% | 10.3 µM [falling, partial curve, poor fit] | 5.17 µM [falling, full curve]
N#Cc1ccc(CSc2nnc(Nc3ccccc3)s2)cc1 | 2.44% | 1.84 µM [rising, partial curve, poor fit] | 13 µM [rising, single point]

SMILES | cell number change | AC50 [1] | AC50 [2]
Cc1ccc(-n2nc3c(=O)n(CC(=O)NCc4ccccn4)nc(C)c3c2C)cc1 | 12.5% | – | 16.4 µM [rising, partial curve]
CC(C)CC(=O)Nc1nc(-c2ccc(S(=O)(=O)N3CCOCC3)cc2)cs1 | -42.8% | 23.1 µM [falling, partial curve] | 20.6 µM [falling, single point]
O=C(Cc1ccc([N+](=O)[O-])cc1)N/N=C/c1ccccc1F | -11.3% | – | 29.1 µM [falling, single point]
CCc1nnc(NC(=O)c2nc(Cl)ccc2Cl)s1 | -0.283% | – | 29.1 µM [rising, single point]
Cc1ccc(/C=C2\SC(=S)N(CCCC(=O)Nc3cc(C)on3)C2=O)cc1 | -14.9% | – | 29.1 µM [falling, single point]
Cn1c(=O)c2nc(Cl)c(-c3ccccc3)nc2n(C)c1=O | 47.7% | 29.1 µM [rising, single point] | 6.51 µM [falling, single point]
Cc1cnc(C(=O)OCc2ccc(Br)cc2)cn1 | 15.7% | – | 6.51 µM [falling, single point]
Cn1c(O)c(N=NC(=S)Nc2ccccc2F)c2cc(S(=O)(=O)N3CCOCC3)ccc21 | -18.8% | – | 29.1 µM [falling, single point]
Cc1ccc(NC(=O)NC2CCCN2S(=O)(=O)c2ccc(Cl)cc2)cc1 (centres undefined) | 14.7% | – | 6.51 µM [rising, single point]
CC(C)(C)NC(=O)NC(=O)COC(=O)COc1ccc(Cl)cc1Cl | -5.86% | – | 0.146 µM [falling, full curve, poor fit]
Cc1ccccc1OC(C)C(=O)NCCC1=CCCCC1 (centres undefined) | -3.52% | 0.461 µM [rising, partial curve, poor fit] | 23.1 µM [falling, single point]
O=C(COC(=O)/C=C/c1cccc(F)c1)NC1CCCC1 | -6.39% | – | –
Cc1nnc(NC(=O)c2ccc(S(=O)(=O)N(C)Cc3ccccc3)cc2)o1 | -7.62% | – | 0.103 µM [falling, full curve, poor fit]
CCOC(=O)c1oc2ccccc2c1NC(=O)c1ccc(S(=O)(=O)N2CCCC2)cc1 | 4.39% | – | –
CCOc1ccccc1NC(=S)Nn1cnnc1 | 2.35% | – | –
Cc1cc(C)nc(N/N=C/c2ccccc2OCc2ccc([N+](=O)[O-])cc2)n1 | 42% | 8.2 µM [rising, partial curve] | 14.6 µM [rising, partial curve]
Cc1cc2cc(CN(C(=O)C3CC3)C3CCCC3)c3nnnn3c2cc1C | -3.25% | 0.82 µM [falling, single point] | 0.82 µM [falling, partial curve, poor fit]
O=C1C=C(c2cccc(CO)c2)C[C@@H](c2ccc(Cl)cc2)C1 | -12.4% | – | 1.16 µM [falling, single point]
Cc1cc(SCC(=O)NC(=O)NCc2ccco2)nc2c(C)cccc12 | 8.55% | 0.13 µM [rising, full curve, poor fit] | 0.0461 µM [rising, partial curve, poor fit]

An excerpt from above in order of number of heavy atoms, ascending.
SMILES | cell number change | AC50 [1] | AC50 [2]
Cc1ccccc1OC(C)C(=O)NCCC1=CCCCC1 (centres undefined) | -3.52% | 0.461 µM [rising, partial curve, poor fit] | 23.1 µM [falling, single point]
O=C(Cc1ccc([N+](=O)[O-])cc1)N/N=C/c1ccccc1F | -11.3% | – | 29.1 µM [falling, single point]
Cc1cc(C)nc(N/N=C/c2ccccc2OCc2ccc([N+](=O)[O-])cc2)n1 | 42% | 8.2 µM [rising, partial curve] | 14.6 µM [rising, partial curve]
